# Hit rate of the full screen: of about 360,000 compounds, about 7,500 (2.1%) were called active. The shares of active, inactive and inconclusive entries below differ from those in the screen. The call rests on the fitted dose curve; in most records, active means well fitted inhibition curve with a large enough effect; inconclusive means small, poorly fitted or top-dose-only effect, or effect the other way; inactive means flat fitted curve, though single readings scatter. Potencies beside an inconclusive call are fits to weak or partial responses and may not hold up.
# Experiment: Nrf2 qHTS screen for inhibitors; further: nearly all actives have a fitted effect of over 60% in size
# Details: A549 ARE-Fluc reporter, luciferase luminescence, 18-24 h; series mostly up to 46 µM
# Procedure, shortened: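 Cells were seeded and rested 2 h, then exposed to compounds for 18-24 h. CellTiter-Fluor was read first as a viability measure. BugLite was added 15 min before the final luminescent read of ARE-luciferase activity in A549 cells.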
# Potency means the concentration at half of the fitted maximal effect.
row,Compound,Potency
1,CCN=C1S/C(=C\c2cn(C(C)=O)nc2-c2ccccc2)C(=O)N1CC,"inconclusive: 29.1 µM [falling, single point]"
2,O=C(Nc1ccc2c(c1)C(=O)NC2=O)c1cccc(C(F)(F)F)c1,inactive
3,Cc1ccc(C2=NN(C(=O)CCC(=O)O)C(c3cccs3)C2)cc1 (stereo not drawn),"inconclusive: 32.6 µM [falling, partial curve, poor fit]"
4,Cc1ccc(CN(C)C(=O)COC(=O)CSc2ccc(C(N)=O)cc2[N+](=O)[O-])cc1,"inconclusive: 7.31 µM [activator, partial curve]"
5,O=S(=O)(Nc1cccc(-c2ccc(N3CCCCCC3)nn2)c1)c1ccc(F)cc1,"inconclusive: 3.26 µM [activator, full curve]"
6,Cc1ccc(NC(=O)C2CCN(S(=O)(=O)c3ccc(F)cc3)CC2)cc1,inactive
7,Cc1ccccc1NS(=O)(=O)c1nnc(NC(=O)c2ccc(Cl)cc2)s1,"inconclusive: 6.51 µM [falling, full curve, poor fit]"
8,COc1ccc(NC(=O)CCCn2c(=O)c3cccn3c3ccccc32)c(OC)c1,"inconclusive: 0.82 µM [activator, full curve, poor fit]"
9,COc1ccc(Cn2c(=O)[nH]c3cc(C(=O)NC4CCN(Cc5ccccc5)CC4)ccc32)cc1,"inconclusive: 11.6 µM [falling, partial curve]"
10,O=C(/C=C/c1cccs1)N1CCN(Cc2ccc3c(c2)OCO3)CC1,inactive
11,CC(=O)Nc1ccc(NC(=O)C(C)OC(=O)/C=C/c2cn(-c3ccccc3)nc2-c2cccnc2)cc1 (stereo not drawn),"inconclusive: 23.1 µM [falling, single point]"
12,CC(=O)c1cc(C(=O)NC2CCCc3c2cnn3-c2cc(C)cc(C)c2)[nH]n1 (stereo not drawn),inactive
13,COc1cccc(OC)c1-c1nnc(-c2cn(C)c3ccccc23)o1,inactive
14,CCc1ccccc1NC(=O)Cn1c(=O)n(CCCS(=O)(=O)C2CCCCC2)c(=O)c2ccccc21,"inconclusive: 6.51 µM [activator, single point]"
15,CCN(CC)C(=O)CN(c1cc(Cl)ccc1OC)S(C)(=O)=O,"inconclusive: 8.2 µM [falling, partial curve, poor fit]"
16,O=C(NCC1CCCO1)c1cnn2c(C(F)F)cc(C3CC3)nc12 (stereo not drawn),"inconclusive: 16.4 µM [falling, single point]"
17,COc1ccc(CNC(=O)CN2C(=O)CC(c3ccc(C)c(C)c3)=Nc3ccccc32)cc1,"inconclusive: 23.1 µM [activator, partial curve, poor fit]"
18,Cc1c(-c2ccccc2)n[nH]c1C(=O)NN,inactive
19,COc1ccc(C(=O)NCCn2cc(SCc3c(F)cccc3Cl)c3ccccc32)cc1,"inconclusive: 29.1 µM [falling, single point]"
20,Cc1cc(NC(=O)CN2CCCC(C)C2)n(-c2nc3ccccc3s2)n1 (stereo not drawn),"inconclusive: 6.51 µM [activator, full curve, poor fit]"
21,CC(=O)c1c(C)[nH]c(C(=O)Nc2cccc(C(F)(F)F)c2)c1C,active: 20.6 µM
22,O=C(COC(=O)Cn1nnc2ccccc21)NC1CCCC1,"inconclusive: 0.366 µM [falling, full curve, poor fit]"

row,Compound,Potency
1,CC(=O)N1CCN(c2ncnc3sc(-c4ccccc4)cc23)CC1,"inconclusive: 29.1 µM [falling, single point]"
2,COC(=O)c1c(-c2cccnc2)csc1NC(=O)c1ccc2c(c1)OCO2,"inconclusive: 1.16 µM [activator, full curve]"
3,Cc1cc(C)c(-c2n[nH]c3c2C(c2ccccc2F)N(Cc2ccco2)C3=O)c(O)c1 (stereo not drawn),inactive
4,CCOC(=O)C1(Cc2ccccc2Cl)CCN(C(=O)c2cnccn2)CC1,"inconclusive: 6.51 µM [activator, partial curve]"
5,Cc1ccc(OCC(=O)NNC(=O)C2CCN(c3ncnc4sc(C)c(C)c34)CC2)cc1,inactive
6,O=C(O)CCSc1nc2ccccc2n1-c1ccccc1,active: 5.8 µM
7,FC(F)(F)c1cccc(N2CCN(C3CC4CCC3C4)CC2)c1 (stereo not drawn),"inconclusive: 29.1 µM [activator, single point]"
8,O=C(COC(=O)c1c[nH]c2ccccc12)Nc1ccccc1,inactive
9,Clc1nc(-c2cccnc2)nc2scc(-c3ccccc3)c12,"inconclusive: 6.51 µM [activator, partial curve, poor fit]"
10,CCOC(=O)c1cccc(NC(=O)c2ccc3c(c2)OCO3)c1,"inconclusive: 6.51 µM [activator, single point]"
11,CCN1CCN(C(=S)NCCc2ccccc2)CC1,"inconclusive: 11.6 µM [activator, partial curve]"
12,CCN(CC)S(=O)(=O)c1cc(NC(=O)C(C)N2CCN(c3ccccn3)CC2)ccc1C (stereo not drawn),"inconclusive: 11.6 µM [falling, partial curve, poor fit]"
13,CCCC(=O)c1c(NCCO)cc(C)oc1=O,inactive
14,C=C1C2(C(=O)Nc3nccs3)CCC(C2)C1(C)C (stereo not drawn),inactive
15,COc1ccc(-c2cc(C(F)(F)F)nc(SCCC(=O)Nc3ccc(OC)c(OC)c3)n2)cc1,"inconclusive: 3.66 µM [falling, partial curve, poor fit]"
16,O=[N+]([O-])c1ccc2nc(-c3ccc(Cl)cc3)n(OCc3ccccc3)c2c1,"inconclusive: 10.3 µM [activator, partial curve]"
17,COc1cccc(OCc2cc(C(=O)N(C)Cc3nc4ccccc4[nH]3)no2)c1,"inconclusive: 2.91 µM [activator, partial curve]"
18,CCN1CCC(N(Cc2ccc3c(c2)OCO3)C(=O)Nc2cc(F)ccc2F)CC1,"inconclusive: 20.6 µM [activator, single point]"
19,Cc1cccc(NC(=O)COn2nnc3ccc(S(C)(=O)=O)cc32)c1,"inconclusive: 29.1 µM [falling, single point]"
20,CCOC(=O)Cc1nn(Cc2nc(-c3ccc(C#N)cc3)cs2)c(=O)c2ccccc12,"inconclusive: 29.1 µM [falling, single point]"
21,COc1ccc(CN(C)CC(=O)Nc2ccccc2C(F)(F)F)cc1,inactive

# 3 entries out of the list, ordered by formula weight, largest number first:
row,Compound,Potency
5,Cc1ccc(OCC(=O)NNC(=O)C2CCN(c3ncnc4sc(C)c(C)c34)CC2)cc1,inactive
6,O=C(O)CCSc1nc2ccccc2n1-c1ccccc1,active: 5.8 µM
8,O=C(COC(=O)c1c[nH]c2ccccc12)Nc1ccccc1,inactive

# Reference: PubChem BioAssay AID504444 (National Center for Advancing Translational Sciences (NCATS), 2011)
